{"sequences": {"note": "Chains of the proteins cited; added tags and fusions are not shown. Residues count along the entry.", "UniProt P13423, 197-764 limits assumed": "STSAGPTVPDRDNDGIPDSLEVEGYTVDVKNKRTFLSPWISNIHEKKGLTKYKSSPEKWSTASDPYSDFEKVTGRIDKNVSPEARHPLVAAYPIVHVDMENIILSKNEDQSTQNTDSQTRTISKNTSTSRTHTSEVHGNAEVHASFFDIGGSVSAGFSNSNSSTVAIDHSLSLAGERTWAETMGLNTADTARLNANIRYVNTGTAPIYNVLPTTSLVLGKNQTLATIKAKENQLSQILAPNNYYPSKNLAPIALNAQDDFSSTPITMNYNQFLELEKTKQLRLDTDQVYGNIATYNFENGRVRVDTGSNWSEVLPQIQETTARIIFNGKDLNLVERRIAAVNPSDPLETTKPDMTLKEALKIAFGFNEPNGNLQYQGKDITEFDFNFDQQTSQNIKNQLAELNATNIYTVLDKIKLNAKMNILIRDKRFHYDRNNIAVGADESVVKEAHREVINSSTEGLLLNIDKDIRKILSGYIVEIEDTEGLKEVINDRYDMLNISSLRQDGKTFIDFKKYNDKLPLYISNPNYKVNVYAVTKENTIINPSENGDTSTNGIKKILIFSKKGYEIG"}, "source": "patent US20030108556A1", "about": "(priority 2001, published 2003)", "target": "PA63 heptamer (Bacillus anthracis, UniProt P13423)", "assay_type": "binding", "note": "Not every detail of the peptide structures is certain; ends, links or a residue may be inferred. Ends that are not written are not given here."}
{"sequence": "HTSTYWWLDGAP", "values": [{"measurement": "effect on binding of radiolabeled LFN to PA63 on CHO cells", "value": "disrupt the binding"}]}
